The source of these data is paper PMC10224957.

These are yes or no findings as the source states them, for the method shown. For some assays here: Binding seen in cells or lysates may run through a third protein. Some results given as binding are weak or reduced against the parent protein; the word gives no strength.

Assay [1] addresses T1, Purβ on the HuProt microarray (human) (UniProt Q96QR8).
T1 sequence: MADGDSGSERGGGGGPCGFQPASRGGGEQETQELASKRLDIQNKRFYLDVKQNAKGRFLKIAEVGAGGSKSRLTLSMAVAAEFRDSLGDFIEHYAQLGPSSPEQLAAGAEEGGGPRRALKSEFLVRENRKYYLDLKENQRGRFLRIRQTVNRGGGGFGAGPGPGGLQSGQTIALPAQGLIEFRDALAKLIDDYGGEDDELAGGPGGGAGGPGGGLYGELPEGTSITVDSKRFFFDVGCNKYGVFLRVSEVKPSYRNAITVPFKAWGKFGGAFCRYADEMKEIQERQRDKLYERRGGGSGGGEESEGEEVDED
The experiment in a line: peptide or protein array; HuProt 20K microarray of GST-tagged human full-length proteins, blocked with BSA in PBS; biotin-labeled JAZF1 protein (3 µg in 3 ml blocking solution) incubated at RT for 1 hr; streptavidin-Cy5; both purified.

Assay [2] addresses T2, Juxtaposed with another zinc finger protein 1 (JAZF1) (human (endogenous in immortalized HESCs)) (UniProt Q86VZ6).
T2 sequence: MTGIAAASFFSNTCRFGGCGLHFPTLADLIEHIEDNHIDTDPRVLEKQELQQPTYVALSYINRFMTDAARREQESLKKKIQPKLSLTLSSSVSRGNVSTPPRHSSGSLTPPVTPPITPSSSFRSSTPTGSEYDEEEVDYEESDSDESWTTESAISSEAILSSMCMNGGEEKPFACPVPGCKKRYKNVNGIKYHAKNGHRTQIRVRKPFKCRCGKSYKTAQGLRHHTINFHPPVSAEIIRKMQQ
The experiment in a line: co-IP; IP with anti-JAZF1 (Santa Cruz, sc-376503X) or normal mouse IgG and protein A + G magnetic beads from decidualized immortalized HESCs; washed three times in lysis buffer; immunoblot.

B1: JAZF1 protein, labeled with biotin (protein, UniProt Q86VZ6 1-243)
chain: T2 sequence
modifications: biotin
For B1, the binding entry in assay [1] is on record as “binds”.

B2: Purβ (protein, UniProt Q96QR8 1-312)
chain: T1 sequence
Regarding B2, the binding result in assay [2] is “binds”.
